Data as given in PubChem BioAssay AID504774 (Drosophila RNAi Screening Center, 2011)
Aim: 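Genes required for cells to withstand methyl methanesulphonate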 (primary screen). Cell system: Drosophila Kc167 cells. Knock-down reagent: long dsRNA against Drosophila genes, about 0.25 µg dsRNA per well. Time to read-out: about 6 days: 3 days knock-down, then 3 days with or without MMS. Conditions: methyl methanesulphonate 0.004% (w/v) for 3 days after knock-down. Read-out: 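Viability in wells given MMS, read as ATP luminescence, normalised by quantiles plate by plate and averaged across replicates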. Reading the numbers: mean viability with MMS and viability with MMS: higher = more surviving cells after MMS.
In all, the deposit lists about 23,000 reagents; shown is an unselected part of those that have a named target and a result. 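Values are quantile-normalised luminescence on an arbitrary scale; higher means more cells surviving MMS.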 A plus sign joins genes that one reagent is predicted to hit. Further read-outs or replicates are left out here.

gene knocked down,DRSC id,mean viability with MMS,"viability with MMS, replicate 1"
Urm1 (Ubiquitin-related modifier 1),DRSC22941,3.66e6,4.11e6
futsch,DRSC17688,3.57e6,4.07e6
futsch,DRSC17949,3.53e6,3.96e6
futsch,DRSC17952,3.64e6,4.08e6
futsch,DRSC18543,3.45e6,3.88e6
CheB53b (Chemosensory protein B 53b),DRSC05613,3.56e6,4.06e6
CG2712,DRSC18589,3.59e6,4.02e6
CG7430,DRSC10845,3.47e6,3.97e6
alien,DRSC03482,3.41e6,4.06e6
wun2 (wunen-2),DRSC07566,3.68e6,4.12e6
CG11368,DRSC17778,3.39e6,3.83e6
vkg (viking),DRSC03632,3.50e6,3.88e6
CG11598,DRSC14331,3.48e6,3.93e6
CG32551,DRSC19259,3.51e6,3.96e6
RpL28 + snoRNA:Or-CD12,DRSC08293,3.27e6,3.70e6
Cyp6g1 (Cytochrome P450 6g1),DRSC07386,3.78e6,4.34e6
Src42A (Src oncogene at 42A),DRSC04915,3.52e6,4.01e6
Bdp1 (B double prime 1),DRSC03192,3.24e6,3.61e6
TAF1C-like,DRSC04073,3.68e6,3.94e6
CG7202,DRSC11818,3.83e6,4.30e6
CG42553,DRSC08356,3.53e6,4.02e6
CG9702,DRSC16540,3.67e6,4.08e6

The list goes on (3 carried over from the part before).
gene knocked down,DRSC id,mean viability with MMS,"viability with MMS, replicate 1"
CG7202,DRSC11818,3.83e6,4.30e6
CG42553,DRSC08356,3.53e6,4.02e6
CG9702,DRSC16540,3.67e6,4.08e6
CG4951,DRSC15682,3.56e6,4.08e6
scb (scab),DRSC05542,3.45e6,3.96e6
scb (scab),DRSC07678,3.46e6,4.07e6
CG10814,DRSC06004,3.55e6,4.12e6
CG6125,DRSC15970,3.57e6,4.09e6
CG15414,DRSC00429,3.65e6,4.08e6
CG15414,DRSC22353,3.58e6,3.98e6
CG8586,DRSC07218,3.51e6,4.01e6
CG11655,DRSC19413,3.47e6,3.97e6
CG14262,DRSC14757,3.55e6,4.02e6
CG11406,DRSC04010,3.68e6,4.06e6
CG11406,DRSC04108,3.53e6,3.90e6
GlcAT-P (Glucuronyltransferase P),DRSC10603,3.61e6,4.06e6
GlcAT-P (Glucuronyltransferase P),DRSC10604,3.40e6,3.82e6
Vps52 (Vacuolar protein sorting 52),DRSC03050,3.56e6,4.02e6
Sec16 (Secretory 16),DRSC19788,3.31e6,3.78e6
Sec16 (Secretory 16),DRSC19858,3.57e6,3.92e6
CG32371,DRSC22209,3.73e6,4.14e6
CG8519,DRSC10985,3.61e6,4.27e6
SmB (Small ribonucleoprotein particle protein SmB),DRSC03437,2.79e6,3.03e6
Srg2 + CG42826,DRSC10681,3.56e6,4.08e6
Srg2 + CG42826,DRSC10682,3.59e6,3.94e6
CG34267,DRSC07881,3.58e6,4.07e6
CG5399,DRSC15791,3.55e6,4.18e6
